According to PMC4773767:
These are yes or no findings as the source states them, for the method shown. In cells and extracts the contact can be indirect. For some assays here: A result given as binding can be weak or reduced; the word gives no strength. For some assays here: Tags and fused reporters may be left off the sequences shown. One block for each molecule: values may come before it.

Assays:
[1] = target: T1, FLAG-tagged Munc13-4 mutant 289–540 (mouse) (UniProt B2RUP2); assay: co-IP; COS7 cells co-transfected; lysed at 4 °C in 25 mM Tris-HCl pH 7.5, 125 mM NaCl, 1 mM MgCl2, 1% Triton X-100 without GTPγS (no nucleotide named, or 0.1 mM GDP in Fig. 5A); anti-FLAG (M2) or anti-HA (12CA5) on protein G-Sepharose overnight; blot with anti-HA (3F10) or anti-FLAG
T1 sequence: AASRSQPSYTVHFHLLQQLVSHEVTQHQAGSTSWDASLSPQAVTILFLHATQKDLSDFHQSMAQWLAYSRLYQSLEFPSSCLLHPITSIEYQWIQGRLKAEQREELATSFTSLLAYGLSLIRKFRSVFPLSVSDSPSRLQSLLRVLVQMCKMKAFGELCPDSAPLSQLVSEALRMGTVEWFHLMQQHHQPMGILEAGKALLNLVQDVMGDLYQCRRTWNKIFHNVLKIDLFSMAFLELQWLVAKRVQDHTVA

[2] = target: T2, FLAG-tagged Munc13-4 mutant 339–540 (mouse) (UniProt B2RUP2); assay: as above
T2 sequence: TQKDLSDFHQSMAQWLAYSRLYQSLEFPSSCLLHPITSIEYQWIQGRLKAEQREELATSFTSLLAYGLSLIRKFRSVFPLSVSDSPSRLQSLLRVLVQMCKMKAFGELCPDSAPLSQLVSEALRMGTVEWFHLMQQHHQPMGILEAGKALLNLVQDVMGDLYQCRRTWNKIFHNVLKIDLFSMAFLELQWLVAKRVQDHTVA

[3] = target: T3, FLAG-tagged Munc13-4 mutant MHDs (mouse) (UniProt B2RUP2); assay: as above
T3 sequence: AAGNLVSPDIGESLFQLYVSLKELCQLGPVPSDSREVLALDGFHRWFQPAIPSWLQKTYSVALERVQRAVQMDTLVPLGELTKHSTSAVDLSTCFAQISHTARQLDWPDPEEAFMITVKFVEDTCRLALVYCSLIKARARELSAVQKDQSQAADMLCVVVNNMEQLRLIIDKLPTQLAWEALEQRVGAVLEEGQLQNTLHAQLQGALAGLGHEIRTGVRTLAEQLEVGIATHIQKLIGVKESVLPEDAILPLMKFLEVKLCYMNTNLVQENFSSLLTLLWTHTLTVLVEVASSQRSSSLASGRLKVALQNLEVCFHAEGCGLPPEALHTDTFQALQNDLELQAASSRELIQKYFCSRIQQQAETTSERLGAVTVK

[4] = target: FLAG-Rab37 (rat); assay: co-IP; COS7 cells co-transfected; lysed at 4 °C in 25 mM Tris-HCl pH 7.5, 125 mM NaCl, 1 mM MgCl2, 1% Triton X-100 with 0.1 mM GTPγS; anti-FLAG (M2) on protein G-Sepharose overnight; blot with anti-HA (3F10) or anti-FLAG
[5] = target: FLAG-Rab37 (rat); assay: co-IP; COS7 cells co-transfected; lysed at 4 °C in 25 mM Tris-HCl pH 7.5, 125 mM NaCl, 1 mM MgCl2, 1% Triton X-100 without GTPγS (no nucleotide named, or 0.1 mM GDP in Fig. 5A); anti-FLAG (M2) or anti-HA (12CA5) on protein G-Sepharose overnight; blot with anti-HA (3F10) or anti-FLAG
[6] = target: HA-tagged dominant-active Rab37 mutant (HA-Rab37DA) (rat); assay: as above
[7] = target: HA-tagged dominant-negative Rab37 mutant (HA-Rab37DN) (rat); assay: as above
[8] = target: Rab37 expressed in transfected RBL-2H3 cells (rat); assay: co-IP; lysate from transfected RBL-2H3 cells pretreated with DSP, with or without antigen stimulation (Fig. S15)

binding [1]: no binding | binding [2]: no binding | binding [3]: binds
Molecule: HA-tagged dominant-active Rab37 mutant (HA-Rab37DA) (rat)

binding [4]: binds | binding [5]: binds
B1: HA-Munc13-4 (protein, UniProt B2RUP2-2 1-1083)
chain: MATHLSHPQRRPLLRQAIKIRRRRVRDLQDPPPQATQEVQVQSHHFSPEERDLLYEEALYTVLHRLGQPEPNHVKEASELLSYLQEAFQVQPEEHQQMLRRVRELEKPVFCLKATVKQAKGILGKDVSGFSDPYCLLGIEQKVGVAEGSPVSRRRQKAVVKHTIPEEETHRTQVKSQTLNPVWDETFILEFEDIANASFHLDMWDLDTVESVRQKLGELTDLHGLRRIFKEARKDKGQDDFLGNVVLRLQDLRCREDQWFPLEPCTETYPDRGQCHLQFQFIHKRRATAASRSQPSYTVHFHLLQQLVSHEVTQHQAGSTSWDASLSPQAVTILFLHATQKDLSDFHQSMAQWLAYSRLYQSLEFPSSCLLHPITSIEYQWIQGRLKAEQREELATSFTSLLAYGLSLIRKFRSVFPLSVSDSPSRLQSLLRVLVQMCKMKAFGELCPDSAPLSQLVSEALRMGTVEWFHLMQQHHQPMGILEAGKALLNLVQDVMGDLYQCRRTWNKIFHNVLKIDLFSMAFLELQWLVAKRVQDHTVAAGNLVSPDIGESLFQLYVSLKELCQLGPVPSDSREVLALDGFHRWFQPAIPSWLQKTYSVALERVQRAVQMDTLVPLGELTKHSTSAVDLSTCFAQISHTARQLDWPDPEEAFMITVKFVEDTCRLALVYCSLIKARARELSAVQKDQSQAADMLCVVVNNMEQLRLIIDKLPTQLAWEALEQRVGAVLEEGQLQNTLHAQLQGALAGLGHEIRTGVRTLAEQLEVGIATHIQKLIGVKESVLPEDAILPLMKFLEVKLCYMNTNLVQENFSSLLTLLWTHTLTVLVEVASSQRSSSLASGRLKVALQNLEVCFHAEGCGLPPEALHTDTFQALQNDLELQAASSRELIQKYFCSRIQQQAETTSERLGAVTVKVSYRASEQRLRVELLSASSLLPLDSNGSSDPFVQLTLEPRHEFPEVAPRETQKHKKELHPLFDETFEFLVPAEPCQKAWACLLLTVLDHDRLGADDLEGEAFLPLCRVPGLTDCAEPGEAPQMRLPLTYPAPNGDPILRLLESRKGDREAQAFVKLRRQRAKQASQHAP

binding [6]: binds | binding [7]: binds
B2: FLAG-Munc13-4 (protein, UniProt B2RUP2-2 1-1083)
chain: B1 chain

binding [8]: binds
B3: Munc13-4 expressed in transfected RBL-2H3 cells (protein, UniProt B2RUP2-2 1-1083)
chain: B1 chain
